Test results from patent US4672054A (Richter Gedeon Vegyeszeti Gyar Rt., priority 1984, dated 1987).
Some peptides are written in HELM: one residue between dots, names in brackets for other building blocks, links after the first $.

Assay: general procedure: solution-phase peptide synthesis; pentafluorophenyl active esters (OPfp)
Conditions: for step yield: late stage modification step
[1] = related to protected octapeptide

Row | Substance | step yield [1] [%] | step yield [%] | crude yield (whole synthesis, related to Boc-His(Dnp)-Pro-Ala-ONB) [%]
1 | PEPTIDE1{[HOAc].R.V.Y.[Chg].H.P.[Lac]}$$$$V2.0 | 55 |  | 
2 | PEPTIDE1{[Lac].R.V.Y.[Cpg].H.P.[Lac]}$$$$V2.0 | 78 |  | 
3 | PEPTIDE1{[Sar].R.V.Y.[Chg].H.P.A}$$$$V2.0 | 74 | 74 | 
4 | PEPTIDE1{[Sar].R.V.Y.[Chg].H.P.[Lac]}$$$$V2.0 | 72 |  | 
5 | PEPTIDE1{[Sar].R.V.Y.[Cpg].H.P.A}$$$$V2.0 | 69 |  | 
6 | PEPTIDE1{[Sar].R.V.Y.[Cpg].H.P.[Lac]}$$$$V2.0 | 66 |  | 
7 | Z-Sar-Arg(NO2)-Val-Tyr(Bzl)-Chg-His(Dnp)-Pro-Ala-ONB |  |  | 70
8 | Z-Sar-Arg(NO2)-Val-Tyr(Bzl)-Chg-His-Pro-Ala-ONB |  | 91 | 
